PMC9050003, “N- and C-terminal regions of the small heat shock protein IbpA from Acholeplasma laidlawii competitively govern its oligomerization pattern and chaperone-like activity†” (RSC Advances, 2020)
Residue numbers refer to the chain shown, from its start. No constants are given. Whether binding was seen depends on the method and setting. Some binding calls cover weakened binding; strength is not graded here. For some assays here: Where a sequence is shown, tags or fusion partners need not be part of it.

Protein sequences, listed by entry. Tags and fused reporters are not part of them. Lines headed by an entry give the natural chain unless they say otherwise; changes in a name come on top.
UniProt P01317: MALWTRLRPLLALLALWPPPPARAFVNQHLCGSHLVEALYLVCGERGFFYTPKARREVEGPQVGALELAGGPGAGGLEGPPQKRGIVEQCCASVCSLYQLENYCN

Key:
[1] = target: T1, AlIbpASEP (Acholeplasma laidlawii) (UniProt A9NFB2); test: pull-down; His6-AlIbpA proteins (0.4 mg) and bovine insulin (0.4 mg) in 300 μl 50 mM Tris–HCl pH 8.0, 200 mM NaCl, 30 min at 37 °C; Ni-NTA sepharose, eluted with 500 mM imidazole; 17.5% SDS-PAGE; grade from the ratio of band densities; both purified
T1 sequence: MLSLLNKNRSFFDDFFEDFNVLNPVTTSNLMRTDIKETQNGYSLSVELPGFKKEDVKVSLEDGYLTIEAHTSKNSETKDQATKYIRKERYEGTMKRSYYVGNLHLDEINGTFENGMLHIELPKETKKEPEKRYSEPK

[2] = target: T2, full-length recombinant AlIbpA (small heat shock protein IbpA from Acholeplasma laidlawii), His6-tagged (Acholeplasma laidlawii) (UniProt A9NFB2); test: SPR; BIAcore T200; His6-AlIbpA proteins immobilised on Ni2+-loaded NTA chip (FC2, about 2000 RU); His6-TnrA20 on FC1 as control, response difference FC2 − FC1; ADH 1.0 mg ml^−1 injected at 10 μl min^−1; 10 mM Na2HPO4, 150 mM NaCl, pH 7.4; KD calculated from the binding curve slopes; both purified
T2 sequence: T1 sequence with S134L, P136L

binding [2]: binds weakly
Substance: bovine insulin (from UniProt P01317 25-54; P01317 85-105)
binding [1]: no binding (tested: 0.4 mg of each protein in 300 μl)
